At least one compound was matched to its structure with a doubt left.
How the values were obtained:
Type in all cases: cell-based, Plasmodium falciparum
P. falciparum D6 = assay: Malaria SYBR Green Fluorescence Assay, D6 strain; details: for D6: SYBR Green Assay
P. falciparum W2 = assay: Malaria SYBR Green Fluorescence Assay, W2 strain; details: for W2: SYBR Green Assay
P. falciparum C235 = assay: Malaria SYBR Green Fluorescence Assay, C235 strain; details: for C235: SYBR Green Assay

Compound	D6 (P. falciparum D6) [ng/mL]	W2 (P. falciparum W2) [ng/mL]	C235 (P. falciparum C235) [ng/mL]	D6 (SYBR Green Assay IC50) (P. falciparum D6) [µg/mL]	W2 (SYBR Green Assay IC50) (P. falciparum W2) [µg/mL]	C235 (SYBR Green Assay IC50) (P. falciparum C235) [µg/mL]
CSc1ccc(-c2nc(N3CCCNCC3)nc(C(Cl)(Cl)Cl)n2)cc1 [Cmpd 262]	≥ 1000	≥ 1000	≥ 1000	–	–	–
CN1CCCC1CCNc1nc(Nc2ccc(-n3cccn3)cc2)nc(C(Cl)(Cl)Cl)n1 (stereo not drawn) [Cmpd 73]	≥ 1000	≥ 1000	≥ 1000	–	–	–
OCCN1CCN(c2nc(-c3ccc(N4CCCC4)cc3)nc(C(Cl)(Cl)Cl)n2)CC1 [Cmpd 431]	–	–	–	≥ 1	≥ 1	≥ 1
CCN1CCCC(Nc2nc(Cc3cccc(OC)c3)nc(C(Cl)(Cl)Cl)n2)C1 (stereo not drawn) [Cmpd 85]	≥ 1000	≥ 1000	≥ 1000	–	–	–
CCN1CCC(CNc2nc(Nc3ccc(OC(F)(F)F)cc3)nc(C(Cl)(Cl)Cl)n2)CC1 [Cmpd 301]	≥ 1000	≥ 1000	≥ 1000	–	–	–
CC(C)(C)OC(=O)N1CC2CC1CN2c1nc(-c2ccc(C(C)(C)C)cc2)nc(C(Cl)(Cl)Cl)n1 (stereo not drawn) [Compound 712, CC(C)(C)OC(═O)N1CC2CC1CN2c3nc(nc(n3)C(Cl)(Cl)Cl)c4ccc(cc4)C(C)(C)C]	≥ 1000	≥ 1000	≥ 1000	–	–	–
CCN(CC)CCNc1nc(-c2ccc(S(C)(=O)=O)cc2)nc(C(Cl)(Cl)Cl)n1 [Cmpd 74]	≥ 1000	≥ 1000	≥ 1000	–	–	–
CCN(CC)CCNc1nc(-c2ccc([S+](C)[O-])cc2)nc(C(Cl)(Cl)Cl)n1 (stereo not drawn) [Cmpd 615]	–	–	–	≥ 1	≥ 1	≥ 1
NC1(CNc2nc(-c3ccc(N4CCCC4)cc3)nc(C(Cl)(Cl)Cl)n2)CCOCC1 [Cmpd 432]	–	–	–	≥ 1	≥ 1	≥ 1
CC(C)CN1CCC(Nc2nc(-c3ccc4ccccc4c3)nc(C(Cl)(Cl)Cl)n2)CC1 [Compound 698, CC(C)CN1CCC(CC1)NC1═NC(═NC(═N1)C1═CC2═C(C═CC═C2)C═C1)C(Cl)(Cl)Cl]	≥ 1000	≥ 1000	≥ 1000	–	–	–
COc1ccc(-c2nc(N3CCCNCC3)nc(C(Cl)(Cl)Cl)n2)cc1OC [Cmpd 397]	–	–	–	≥ 1	≥ 1	≥ 1
CN(C)C1CCN(c2nc(-c3ccc(C(Cl)(Cl)Cl)cc3)nc(C(Cl)(Cl)Cl)n2)C1 (stereo not drawn) [Cmpd 56]	≥ 1000	≥ 1000	≥ 1000	–	–	–
